Data reported in the supplement of paper PMC5355238.
“And” between values parts separate entries of the source, which are not always exact repeats. Identical values can stand only once. Counter-ions that a name gives are not always drawn. The list shows a part of the results. Most entries show no effect beyond the scatter of the controls.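 Using flow cytometry, the assay measures the median γH2AX antibody signal in S-phase Reh cells (a human leukemia line). Each score is the number of standard deviations from the median difference of paired plate sets. Candidate hits scored above 2.5; compounds scoring below -2 lowered MK1775-induced damage.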

Test system: Reh
Assay: Z' of S-phase gammaH2AX difference (drug + MK1775 minus drug alone) (Z-score); higher = stronger synergistic S-phase DNA damage with MK1775
Details: MK1775 concentration 400 nM; first compound 10 µM; 4 h

Row | SMILES | Z' of S-phase gammaH2AX difference (Z-score)
1 | COc1ccccc1NC(=O)Nc1nc(-c2cccnc2)nc2ccccc12 + C=CCn1c(=O)c2cnc(Nc3ccc(N4CCN(C)CC4)cc3)nc2n1-c1cccc(C(C)(C)O)n1 [MK1775] | inactive: 0.524
2 | COCc1nc2c([nH]1)c(=O)n(C)c(=O)n2CC(C)C [8-Methoxymethyl-3-isobutyl-1-methylxanthine] + C=CCn1c(=O)c2cnc(Nc3ccc(N4CCN(C)CC4)cc3)nc2n1-c1cccc(C(C)(C)O)n1 [MK1775] | inactive: 0.262
3 | NC(=O)OCC(COC(N)=O)c1ccccc1 [Felbamate] + C=CCn1c(=O)c2cnc(Nc3ccc(N4CCN(C)CC4)cc3)nc2n1-c1cccc(C(C)(C)O)n1 [MK1775] | inactive: -0.347
4 | CCCCS(=N)(=O)CCC(N)C(=O)O (racemic) [DL-Buthionine-[S,R]-sulfoximine] + C=CCn1c(=O)c2cnc(Nc3ccc(N4CCN(C)CC4)cc3)nc2n1-c1cccc(C(C)(C)O)n1 [MK1775] | inactive: -0.0768
5 | CC(C)n1c(/C=C/C(O)CC(O)CC(=O)O)c(-c2ccc(F)cc2)c2ccccc21 (stereo unspecified) [Fluvastatin sodium (Lescol)] + C=CCn1c(=O)c2cnc(Nc3ccc(N4CCN(C)CC4)cc3)nc2n1-c1cccc(C(C)(C)O)n1 [MK1775] | inactive: 0.0377
6 | CCCCNc1cc(C(=O)O)cc(S(N)(=O)=O)c1Oc1ccccc1 [Bumetanide] + C=CCn1c(=O)c2cnc(Nc3ccc(N4CCN(C)CC4)cc3)nc2n1-c1cccc(C(C)(C)O)n1 [MK1775] | inactive: -0.00334
7 | Cn1ccnc1 [1-Methylimidazole] + C=CCn1c(=O)c2cnc(Nc3ccc(N4CCN(C)CC4)cc3)nc2n1-c1cccc(C(C)(C)O)n1 [MK1775] | inactive: -0.097
8 | CCN(CC)CCOC(=O)c1ccc(N)cc1 [Procaine hydrochloride] + C=CCn1c(=O)c2cnc(Nc3ccc(N4CCN(C)CC4)cc3)nc2n1-c1cccc(C(C)(C)O)n1 [MK1775] | inactive: 0.767
9 | CC(=O)N[C@@H](CS)C(=O)O [N-Acetyl-L-Cysteine] + C=CCn1c(=O)c2cnc(Nc3ccc(N4CCN(C)CC4)cc3)nc2n1-c1cccc(C(C)(C)O)n1 [MK1775] | inactive: 0.237
10 | C[C@]1(c2nc3c(C(N)=O)cccc3[nH]2)CCCN1 [ABT-888 (Veliparib)] + C=CCn1c(=O)c2cnc(Nc3ccc(N4CCN(C)CC4)cc3)nc2n1-c1cccc(C(C)(C)O)n1 [MK1775] | inactive: 0.274
11 | N#C/C(=C\c1ccc(O)c(O)c1)C(=O)NCCc1ccccc1 [Tyrphostin AG 698] + C=CCn1c(=O)c2cnc(Nc3ccc(N4CCN(C)CC4)cc3)nc2n1-c1cccc(C(C)(C)O)n1 [MK1775] | inactive: -0.274
12 | O=c1cc(-c2ccccc2)[nH]c2nc(Cl)ccc12 [7-Chloro-4-hydroxy-2-phenyl-1,8-naphthyridine] + C=CCn1c(=O)c2cnc(Nc3ccc(N4CCN(C)CC4)cc3)nc2n1-c1cccc(C(C)(C)O)n1 [MK1775] | inactive: 0.932
13 | O=C(O)Cc1cccc(OCCCN(Cc2cccc(C(F)(F)F)c2Cl)CC(c2ccccc2)c2ccccc2)c1 + C=CCn1c(=O)c2cnc(Nc3ccc(N4CCN(C)CC4)cc3)nc2n1-c1cccc(C(C)(C)O)n1 [MK1775] | inactive: 0.209
14 | O=c1[nH]c(=O)c2nc3ccccc3nc2[nH]1 [Alloxazine] + C=CCn1c(=O)c2cnc(Nc3ccc(N4CCN(C)CC4)cc3)nc2n1-c1cccc(C(C)(C)O)n1 [MK1775] | inactive: -0.234
15 | CC(=O)O[C@H]1C[C@@]2(C)[C@@H](C[C@@H](O)[C@H]3[C@@]4(C)CC[C@@H](O)[C@@H](C)[C@@H]4CC[C@@]32C)/C1=C(\CCC=C(C)C)C(=O)O [Fusidic acid sodium] + C=CCn1c(=O)c2cnc(Nc3ccc(N4CCN(C)CC4)cc3)nc2n1-c1cccc(C(C)(C)O)n1 [MK1775] | inactive: 0.333
16 | O=c1[nH]c2cc(C(F)(F)F)ccc2n1-c1cc(C(F)(F)F)ccc1O + C=CCn1c(=O)c2cnc(Nc3ccc(N4CCN(C)CC4)cc3)nc2n1-c1cccc(C(C)(C)O)n1 [MK1775] | inactive: -0.34
17 | N[C@@H](CCCC(=O)O)C(=O)O [L-2-aminoadipic acid] + C=CCn1c(=O)c2cnc(Nc3ccc(N4CCN(C)CC4)cc3)nc2n1-c1cccc(C(C)(C)O)n1 [MK1775] | inactive: 0.0869
18 | Oc1cc2c(cc1O)CN(C(=S)NCCc1ccc(Cl)cc1)CCC2 [Capsazepine] + C=CCn1c(=O)c2cnc(Nc3ccc(N4CCN(C)CC4)cc3)nc2n1-c1cccc(C(C)(C)O)n1 [MK1775] | inactive: 0.104

Row | SMILES | Z' of S-phase gammaH2AX difference (Z-score)
19 | NC[C@@H](O)c1ccc(O)c(O)c1 [L(-)-Norepinephrine bitartrate] + C=CCn1c(=O)c2cnc(Nc3ccc(N4CCN(C)CC4)cc3)nc2n1-c1cccc(C(C)(C)O)n1 [MK1775] | inactive: -0.0334
20 | Nc1nc(Cl)nc2c1ncn2[C@@H]1O[C@H](COP(=O)(O)OP(=O)(O)OP(=O)(O)O)[C@H](O)C1O (stereo partly specified) [2-Chloroadenosine triphosphate tetrasodium] + C=CCn1c(=O)c2cnc(Nc3ccc(N4CCN(C)CC4)cc3)nc2n1-c1cccc(C(C)(C)O)n1 [MK1775] | inactive: 0.478
21 | COc1ccc2c(c1)c(CC(=O)N1CCOCC1)c(C)n2C(=O)c1ccc(Cl)cc1 [Indomethacin morpholinylamide] + C=CCn1c(=O)c2cnc(Nc3ccc(N4CCN(C)CC4)cc3)nc2n1-c1cccc(C(C)(C)O)n1 [MK1775] | inactive: -0.109
22 | COc1ccc(CCN2CCN(CCCc3ccccc3)CC2)cc1OC + C=CCn1c(=O)c2cnc(Nc3ccc(N4CCN(C)CC4)cc3)nc2n1-c1cccc(C(C)(C)O)n1 [MK1775] | inactive: 0.35
23 | O=C1Cc2c([nH]c3ccc(Br)cc23)-c2ccccc2N1 [Kenpaullone] + C=CCn1c(=O)c2cnc(Nc3ccc(N4CCN(C)CC4)cc3)nc2n1-c1cccc(C(C)(C)O)n1 [MK1775] | inactive: -2.5
24 | CNCCCC12CCC(c3ccccc31)c1ccccc12 [Maprotiline hydrochloride] + C=CCn1c(=O)c2cnc(Nc3ccc(N4CCN(C)CC4)cc3)nc2n1-c1cccc(C(C)(C)O)n1 [MK1775] | inactive: 0.277
25 | C[C@]12C=CC(=O)C=C1CC[C@H]1[C@@H]3C[C@@H](O)[C@](O)(C(=O)CO)[C@@]3(C)C[C@H](O)[C@@]12F [Triamcinolone] + C=CCn1c(=O)c2cnc(Nc3ccc(N4CCN(C)CC4)cc3)nc2n1-c1cccc(C(C)(C)O)n1 [MK1775] | inactive: -0.304
26 | N#Cc1ccc(COC[C@H]2O[C@@H](n3c(NCc4ccc(Cl)c(Cl)c4)nc4c(N)ncnc43)[C@H](O)[C@@H]2O)cc1 + C=CCn1c(=O)c2cnc(Nc3ccc(N4CCN(C)CC4)cc3)nc2n1-c1cccc(C(C)(C)O)n1 [MK1775] | inactive: -0.15
27 | CCCCCCCC/C=C\CCCCCCCC(=O)NCCO [N-Oleoylethanolamine] + C=CCn1c(=O)c2cnc(Nc3ccc(N4CCN(C)CC4)cc3)nc2n1-c1cccc(C(C)(C)O)n1 [MK1775] | inactive: 0.189
28 | CNCC[C@@H](Oc1ccc(C(F)(F)F)cc1)c1ccccc1 [R-(-)-Fluoxetine hydrochloride] + C=CCn1c(=O)c2cnc(Nc3ccc(N4CCN(C)CC4)cc3)nc2n1-c1cccc(C(C)(C)O)n1 [MK1775] | inactive: -0.435
29 | Clc1ccc(C(c2ccc(Cl)cc2)[n+]2ccn(CC(OCc3ccc(Cl)cc3Cl)c3ccc(Cl)cc3Cl)c2)cc1 (stereo unspecified) [Calmidazolium chloride] + C=CCn1c(=O)c2cnc(Nc3ccc(N4CCN(C)CC4)cc3)nc2n1-c1cccc(C(C)(C)O)n1 [MK1775] | inactive: -0.414
30 | C[C@H]1O[C@@H](n2cc(F)c(=O)[nH]c2=O)[C@H](O)[C@@H]1O [5-fluoro-5'-deoxyuridine] + C=CCn1c(=O)c2cnc(Nc3ccc(N4CCN(C)CC4)cc3)nc2n1-c1cccc(C(C)(C)O)n1 [MK1775] | inactive: -0.138
31 | O=c1c(-c2ccc(O)cc2)coc2cc(O)ccc12 [Daidzein] + C=CCn1c(=O)c2cnc(Nc3ccc(N4CCN(C)CC4)cc3)nc2n1-c1cccc(C(C)(C)O)n1 [MK1775] | inactive: 0.658
32 | CC(C)NC[C@H](O)COc1cccc2ccccc12 [(S)-Propranolol hydrochloride] + C=CCn1c(=O)c2cnc(Nc3ccc(N4CCN(C)CC4)cc3)nc2n1-c1cccc(C(C)(C)O)n1 [MK1775] | inactive: -0.767
33 | CC(=O)CCCCn1c(=O)c2c(ncn2C)n(C)c1=O [Pentoxifylline] + C=CCn1c(=O)c2cnc(Nc3ccc(N4CCN(C)CC4)cc3)nc2n1-c1cccc(C(C)(C)O)n1 [MK1775] | inactive: 0.209
34 | O=C(O)C=C1CCCc2ccccc2C1O (stereo unspecified) + C=CCn1c(=O)c2cnc(Nc3ccc(N4CCN(C)CC4)cc3)nc2n1-c1cccc(C(C)(C)O)n1 [MK1775] | inactive: -0.898
35 | CN(C)CCOc1ccc(-c2nc(-c3ccncc3)c(-c3ccc4c(c3)CC/C4=N\O)[nH]2)cc1 + C=CCn1c(=O)c2cnc(Nc3ccc(N4CCN(C)CC4)cc3)nc2n1-c1cccc(C(C)(C)O)n1 [MK1775] | inactive: -0.333
36 | C/C(=C\C(=O)Nc1ccccc1C(=O)O)c1ccc2ccccc2c1 + C=CCn1c(=O)c2cnc(Nc3ccc(N4CCN(C)CC4)cc3)nc2n1-c1cccc(C(C)(C)O)n1 [MK1775] | inactive: 0.734 and inactive: 0.146
